From the supplement of paper PMC8728848
The list shows a part of the results.

Tests used:
Experiment in all cases: glycan array binding signal (z-score within array); higher = stronger binding
Settings in all cases: glycan notation: IUPAC condensed, linker removed
[1] = molecular target: Fuc(a1-2)[Gal(a1-4)]Gal(b1-4)GlcNAc
In short: (§1)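 Glycan array binding is given as a within-array Z-score, which can be read as non-binding when negative. The arrays, 3228 of them, came from the Consortium for Functional Glycomics database and were retained only where the protein sequence was available. Z-scores were averaged across arrays of the same protein sequence at different concentrations or buffers and across linkers.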

[2] = molecular target: Fuc(a1-2)[GalNAc(a1-3)]Gal
In short: as §1

[3] = molecular target: Fuc(a1-2)[GalNAc(a1-3)]Gal(b1-3)GalNAc(a1-3)[Fuc(a1-2)]Gal(b1-4)GlcNAc
In short: as §1

[4] = molecular target: Fuc(a1-2)[GalNAc(a1-3)]Gal(b1-3)GalNAc(b1-3)Gal(a1-4)Gal(b1-4)Glc
In short: as §1

[5] = molecular target: Fuc(a1-2)[GalNAc(a1-3)]Gal(b1-3)GlcNAc
In short: as §1

[6] = molecular target: Fuc(a1-2)[GalNAc(a1-3)]Gal(b1-3)GlcNAc(b1-2)Man(a1-3)[Fuc(a1-2)[GalNAc(a1-3)]Gal(b1-3)GlcNAc(b1-2)Man(a1-6)]Man(b1-4)GlcNAc(b1-4)GlcNAc
In short: as §1

[7] = molecular target: Fuc(a1-2)[GalNAc(a1-3)]Gal(b1-3)GlcNAc(b1-2)Man(a1-3)[Fuc(a1-2)[GalNAc(a1-3)]Gal(b1-3)GlcNAc(b1-2)Man(a1-6)]Man(b1-4)GlcNAc(b1-4)[Fuc(a1-6)]GlcNAc
In short: as §1

[8] = molecular target: Fuc(a1-2)[GalNAc(a1-3)]Gal(b1-3)GlcNAc(b1-3)GalNAc
In short: as §1

[9] = molecular target: Fuc(a1-2)[GalNAc(a1-3)]Gal(b1-3)GlcNAc(b1-6)GalNAc
In short: as §1

[10] = molecular target: Fuc(a1-2)[GalNAc(a1-3)]Gal(b1-4)Glc
In short: as §1

[11] = molecular target: Fuc(a1-2)[GalNAc(a1-3)]Gal(b1-4)GlcNAc
In short: as §1

[12] = molecular target: Fuc(a1-2)[GalNAc(a1-3)]Gal(b1-4)GlcNAc(b1-2)Man
In short: as §1

[13] = molecular target: Fuc(a1-2)[GalNAc(a1-3)]Gal(b1-4)GlcNAc(b1-2)Man(a1-3)[Fuc(a1-2)[GalNAc(a1-3)]Gal(b1-4)GlcNAc(b1-2)Man(a1-6)]Man(b1-4)GlcNAc(b1-4)GlcNAc
In short: as §1

[14] = molecular target: Fuc(a1-2)[GalNAc(a1-3)]Gal(b1-4)GlcNAc(b1-2)Man(a1-3)[Fuc(a1-2)[GalNAc(a1-3)]Gal(b1-4)GlcNAc(b1-2)Man(a1-6)]Man(b1-4)GlcNAc(b1-4)[Fuc(a1-6)]GlcNAc
In short: as §1

[15] = molecular target: Fuc(a1-2)[GalNAc(a1-3)]Gal(b1-4)GlcNAc(b1-3)Gal(b1-4)GlcNAc
In short: as §1

[16] = molecular target: Fuc(a1-2)[GalNAc(a1-3)]Gal(b1-4)GlcNAc(b1-3)Gal(b1-4)GlcNAc(b1-3)Gal(b1-4)GlcNAc
In short: as §1

[17] = molecular target: Fuc(a1-2)[GalNAc(a1-3)]Gal(b1-4)GlcNAc(b1-3)GalNAc
In short: as §1

[18] = molecular target: Fuc(a1-2)[GalNAc(a1-3)]Gal(b1-4)GlcNAc(b1-3)[Fuc(a1-2)[GalNAc(a1-3)]Gal(b1-4)GlcNAc(b1-6)]GalNAc
In short: as §1

[19] = molecular target: Fuc(a1-2)[GalNAc(a1-3)]Gal(b1-4)GlcNAc(b1-6)GalNAc
In short: as §1

[20] = molecular target: Fuc(a1-2)[GalNAc(a1-3)]Gal(b1-4)[Fuc(a1-3)]GlcNAc
In short: as §1

[21] = molecular target: Fuc(a1-2)[GalNAc(a1-3)]Gal(b1-4)[Fuc(a1-3)]GlcNAc(b1-3)GalNAc
In short: as §1

[22] = molecular target: Fuc(a1-2)[GalNAc(a1-4)]Gal(b1-4)GlcNAc
In short: as §1

[23] = molecular target: Fuc(a1-2)[GalNAc(b1-3)]Gal
In short: as §1

B1: PX14375D-bvu-513-34-513 (Bacteroides vulgatus) (protein)
chain: TEDTFWKDETDFNLALTSCYTPLKNALNGGYYGTRGVMLRIARADEVDFRNDISDVYTVNRFTNSNTNSLTQGMFYQFYNALYRTNSIMQKLEEKKEQFSTDFQNSVKGECLFIRGFYLFQLAKEFKDAPLRLTASQSPSTFPLAKSSQADIWAQAKEDLKTAASLLPITNKIGKPTQGAAYAALGKIYVYEENWQEAINVLEPLTQNPYTYKLVEDFNWNFDDTHENNAESIFELLIEDVGGTDLWGDGENINSTQSNTRPKEYAAAEVGGWYEANPTQQIMDIFWKEKDKDGNFDYRARCSVAWDYEGCTYYQRPFREVFAQDKWKTYWILKYQNWKTQKDEPAPPKSFINERAIRYADVLLMLAEAYMNKGALDTSIGYINQIRRRANLNDYSGPITKEGVFEDLVHQRAIEFFVEGERFYDLRRWGLLEQTLKTCDDTRYKNYQTGKSDNINKFNYFPIPAKELDTNPLCTPSEGW
B1 was tested, and the “glycan array binding signal (z-score)” value [1] was -0.107, the “glycan array binding signal (z-score)” value [2] was -0.245 and the “glycan array binding signal (z-score)” value [3] was -0.866. For the same binder, the “glycan array binding signal (z-score)” value [4] was 0.771, the “glycan array binding signal (z-score)” value [5] was -0.158 and the “glycan array binding signal (z-score)” value [6] was -0.164. The “glycan array binding signal (z-score)” value [7] was -0.223, the “glycan array binding signal (z-score)” value [8] was -0.689 and the “glycan array binding signal (z-score)” value [9] was 0.63. The “glycan array binding signal (z-score)” value [10] was -0.644, the “glycan array binding signal (z-score)” value [11] was -0.476 and the “glycan array binding signal (z-score)” value [12] was -0.146. For the same binder, the “glycan array binding signal (z-score)” value [13] was 0.178, the “glycan array binding signal (z-score)” value [14] was -0.159 and the “glycan array binding signal (z-score)” value [15] was 0.158. For the same binder, the “glycan array binding signal (z-score)” value [16] was 0.129, the “glycan array binding signal (z-score)” value [17] was -0.272 and the “glycan array binding signal (z-score)” value [18] was -0.789. For the same binder, the “glycan array binding signal (z-score)” value [19] was -0.607, the “glycan array binding signal (z-score)” value [20] was -0.2 and the “glycan array binding signal (z-score)” value [21] was 1.33. For the same binder, the “glycan array binding signal (z-score)” value [22] was -0.303 and the “glycan array binding signal (z-score)” value [23] was -0.623.
